These are yes or no findings as the source states them, for the method shown. One block for each substance: values may come before it.
Tests used:
Experiment in all cases: AUC; sedimentation equilibrium, 4 °C, Beckman Optima XL-A, absorption optics; samples at 60 μM and 160 μM in 25 mM Tris pH 7.5-8.5, 500 mM NaCl (other salts in some runs); 11,000-22,000 rpm; single-species fits and global fits of monomer-dimer and other models; monomer to dimer; both purified
[1] = molecular target: NarL C-terminal domain construct NarL^(C (126–216)), with the entire linker region (Escherichia coli) (UniProt P0AF28)
[2] = molecular target: Full-length unphosphorylated NarL (Escherichia coli) (UniProt P0AF28)
[3] = molecular target: NarL C-terminal domain construct NarL^(C (147–216)) (Escherichia coli) (UniProt P0AF28)

Chains of the proteins cited; added tags and fusions are not shown. Lines headed by an entry give the natural chain unless they say otherwise; changes in a name come on top.
UniProt P0AF28: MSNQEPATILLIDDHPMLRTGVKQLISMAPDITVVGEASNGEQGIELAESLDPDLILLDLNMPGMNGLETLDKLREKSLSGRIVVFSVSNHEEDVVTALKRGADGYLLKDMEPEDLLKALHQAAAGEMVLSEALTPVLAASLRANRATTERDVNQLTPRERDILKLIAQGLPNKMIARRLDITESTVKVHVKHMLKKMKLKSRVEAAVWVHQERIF

binding [1]: no binding (tested: 160 μM)
Substance: NarL C-terminal domain construct NarL^(C (126–216)), with the entire linker region (from UniProt P0AF28 126-216) (domain or fragment)

binding [2]: no binding (tested: 160 μM)
Substance: Full-length unphosphorylated NarL (from UniProt P0AF28 1-216)

binding [3]: no binding (tested: 160 μM)
Substance: NarL C-terminal domain construct NarL^(C (147–216)) (from UniProt P0AF28 147-216) (domain or fragment)
